Measurements taken from patent US20020094522A1, “Means and methods for monitoring non-nucleoside reverse transcriptase inhibitor antiretroviral therapy and guiding therapeutic decisions in the treatment of HIV/AIDS” (priority 2000, published 2002).
Some of these results come from one statement about several compounds together.

Experiments:
Assay type in all cases: cell-based, HIV-1
Conditions in all cases: site directed mutant
K103N-Y188L-RTV = experiment: Phenotypic susceptibility assay, K103N-Y188L-RTV
Method: (§1) The resistance test vectors containing a functional luciferase gene cassette were constructed and host cells were transfected with the resistance test vector DNA. The resistant test vectors contained patient-derived reverse transcriptase and protease sequences that were either susceptible or resistant to the antiretroviral agents, such as nucleoside reverse transcriptase inhibitors, non-nucleoside reverse transcriptase inhibitors and protease inhibitors. […] The IC50 values were determined by plotting percent drug inhibition vs. log10 drug concentration.
(§2) Host cells were seeded in 10-cm-diameter dishes and were transfected several days after plating with resistance test vector plasmid DNA and the envelope expression vector. […] HIV capsid protein (p24) levels in the harvested cell culture media were determined by an EIA method as described by the manufacturer (SIAC; Frederick, Md.). […] The inhibitory effect of the drug was determined using the following equation: […]
(§3) The mutations Y188L, L100I and K103N were introduced alone and in combinationn into resistance test vectors using the mega-primer method for site-directed mutagenesis (Sakar and Sommar, Ibid.). […] We determined the pattern of phenotypic susceptibility to the NNRTIs, delavirdine, nevlrapine and efavirenz, in all 6 vectors.

L100I-K103N-Y188L-RTV = experiment: Phenotypic susceptibility assay, L100I-K103N-Y188L-RTV
Method: as §1, §2, §3

L100I-K103N-RTV = experiment: Phenotypic susceptibility assay, L100I-K103N-RTV
Method: as §1, §2, §3

Measured: fold loss of susceptibility compared to wild type control RTV

CC(C)Nc1cccnc1N1CCN(C(=O)c2cc3cc(NS(C)(=O)=O)ccc3[nH]2)CC1 [delavirdine]
greater than 250 fold: K103N-Y188L-RTV | L100I-K103N-Y188L-RTV | L100I-K103N-RTV

O=C1Nc2ccc(Cl)cc2[C@@](C#CC2CC2)(C(F)(F)F)O1 [efavirenz]
greater than 250 fold: K103N-Y188L-RTV | L100I-K103N-Y188L-RTV | L100I-K103N-RTV
